Data as given in doi:10.1101/2022.03.24.485557.
Results are given in words; binding and its absence hold for the method and conditions named. In cells and extracts the contact can be indirect. Binding calls can cover weak binding; strength is not graded here.

By UniProt entry, the sequences of proteins in these tests, tags left out. Where a name states a change or a piece, a line headed by the entry shows the natural chain unless it says otherwise.
UniProt P06804: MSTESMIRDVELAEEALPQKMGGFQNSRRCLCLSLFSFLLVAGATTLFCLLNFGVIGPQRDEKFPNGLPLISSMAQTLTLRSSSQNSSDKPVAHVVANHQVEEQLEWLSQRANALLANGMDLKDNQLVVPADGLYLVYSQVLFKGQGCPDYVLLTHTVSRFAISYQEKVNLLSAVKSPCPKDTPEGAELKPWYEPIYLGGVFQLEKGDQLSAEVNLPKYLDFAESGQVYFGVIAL

Biological target: Flag-mTNF-α (mouse) (UniProt P06804)
Assay: co-IP

- binding: binds
B1: TAK1 (protein, UniProt Q62073 1-579)
chain: MSTASAASSSSSSSASEMIEAPSQVLNFEEIDYKEIEVEEVVGRGAFGVVCKAKWRAKDVAIKQIESESERKAFIVELRQLSRVNHPNIVKLYGACLNPVCLVMEYAEGGSLYNVLHGAEPLPYYTAAHAMSWCLQCSQGVAYLHSMQPKALIHRDLKPPNLLLVAGGTVLKICDFGTACDIQTHMTNNKGSAAWMAPEVFEGSNYSEKCDVFSWGIILWEVITRRKPFDEIGGPAFRIMWAVHNGTRPPLIKNLPKPIESLMTRCWSKDPSQRPSMEEIVKIMTHLMRYFPGADEPLQYPCQYSDEGQSNSATSTGSFMDIASTNTSNKSDTNMEQVPATNDTIKRLESKLLKNQAKQQSESGRLSLGASRGSSVESLPPTSEGKRMSADMSEIEARIVATAGNGQPRRRSIQDLTVTGTEPGQVSSRSSSPSVRMITTSGPTSEKPARSHPWTPDDSTDTNGSDNSIPMAYLTLDHQLQPLAPCPNSKESMAVFEQHCKMAQEYMKVQTEIALLLQRKQELVAELDQDEKDQQNTSRLVQEHKKLLDENKSLSTYYQQCKKQLEVIRSQQQKRQGTS
